Data published in paper PMC7862700.
The list shows a part of the results. The exact form of the protein is not confirmed.

Each sequence was assayed against T1, ETS1 (UniProt P14921) (assay: DAPPL (digital affinity profiling via proximity ligation, sequencing)). Settings: 10 mM Tris-HCl pH 7.5, 50 mM NaCl, 1 mM DTT, 4% glycerol, room temperature, 30 min; GST-TFs on glutathione beads, 16-mer random dsDNA library, 0.1% …; high values mean tight binding; double strand, one strand shown; scale: fold enrichment (6-mer frequency, TF over GST control).
T1 sequence: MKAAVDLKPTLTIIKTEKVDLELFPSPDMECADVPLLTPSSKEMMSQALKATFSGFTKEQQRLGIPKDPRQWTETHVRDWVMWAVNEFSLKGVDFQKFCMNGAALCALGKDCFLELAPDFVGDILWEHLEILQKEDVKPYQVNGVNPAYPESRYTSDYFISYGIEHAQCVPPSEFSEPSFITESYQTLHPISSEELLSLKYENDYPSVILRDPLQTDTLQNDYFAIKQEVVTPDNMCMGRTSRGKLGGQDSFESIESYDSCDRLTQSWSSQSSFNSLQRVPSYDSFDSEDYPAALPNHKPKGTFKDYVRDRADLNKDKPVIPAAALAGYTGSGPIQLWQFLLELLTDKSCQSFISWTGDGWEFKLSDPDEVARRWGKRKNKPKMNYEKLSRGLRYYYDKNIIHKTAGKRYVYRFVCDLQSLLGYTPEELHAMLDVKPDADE
With AGTCCC the binding signal was 1.03. Sequence ACCAAA has a binding signal of 1.07. CCGCTG was tested, and the binding signal was 1.07. For GTTACA, the binding signal was 1.15. CTTACA gave a binding signal of 1.36. TATGTG showed a binding signal of 1.17. With AACTCC the binding signal was 1.34. With TAGTGG the binding signal was 1.14. CCTAAG was tested, and the binding signal was 1.17. ATTTGC showed a binding signal of 1.41. Work on TCATCT yielded a binding signal of 1.19. In the case of ACCCGA, the binding signal is reported as 1.06. TATATG showed a binding signal of 1.44. CATGCC was tested, and the binding signal was 1.12. Work on TAGTGT yielded a binding signal of 1.06. GGAACT was tested, and the binding signal was 1.84. With GCTTTT the binding signal was 1.09. TTTTTG showed a binding signal of 1.42. Sequence CCTTCA has a binding signal of 1.5. AGCACT showed a binding signal of 1.38. With TTGATC the binding signal was 1.11. Sequence CGTTTT has a binding signal of 1.21. With CAAGCA the binding signal was 1.15. With CTTAGT the binding signal was 1.32. ACCATC showed a binding signal of 1.13. TCTTTT was tested, and the binding signal was 1.42. TAAAAA was tested, and the binding signal was 1.46. GTACCC gave a binding signal of 1.13. In the case of CGTTGC, the binding signal is reported as 1.09. TTCCAA was tested, and the binding signal was 1.32. ACTGCA gave a binding signal of 1.12. TTTCGT was tested, and the binding signal was 1.35. AATGGT gave a binding signal of 1.49. CTTAGC gave a binding signal of 1.13. Work on TTTGGG yielded a binding signal of 1.32. Work on CTGGCA yielded a binding signal of 1.33. TGTCTA was tested, and the binding signal was 1.11. Work on AAGATT yielded a binding signal of 1.14. CCTTTA showed a binding signal of 1.37. AACATT showed a binding signal of 1.26.
